{"source": "patent US12622918B2", "about": "“Formulations and dosages for administering a compound that inhibits MCL1 protein” (Amgen Inc., priority 2019, dated 2026)", "test_system": "tumor cell lines derived from multiple myeloma, AML, and NHL", "experiment": "Cell viability in panel of 23 tumor cell lines", "format": "cell-based", "details": "23 tested cell lines, growth medium containing 10% FBS", "note": "The name of at least one read-out is uncertain."}
{"compound": "CO[C@H]1/C=C/C[C@H](C)[C@@H](C)S(=O)(=O)NC(=O)c2ccc3c(c2)N(C[C@@H]2CC[C@H]21)C[C@@]1(CCCc2cc(Cl)ccc21)CO3", "note": "[AMG 176]", "values": [{"measurement": "cell lines with IC50 values of less than 1 μM", "value": "12 of 23"}, {"measurement": "cell lines with IC50 values of less than 1 μM", "setting": "listed as compound of Formula I", "value": "12 of the 23"}]}
